Data reported in PubChem BioAssay AID2685 (National Center for Advancing Translational Sciences (NCATS), 2010).
The other results are listed elsewhere or left out. The main result of the screen is listed elsewhere. These columns were measured beside it and carry no call. Compounds called inactive in the main read-out are mostly missing here. Words in brackets tell the shape of the fitted curve; partial curves, single points and poor fits give uncertain potencies.

Experiment: qHTS Assay for Lipid Storage Modulators in Drosophila S3 Cells;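 for cell number change: cells counted by Cell Tracker Red CMTPX staining in the red channel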
Details: BODIPY lipid droplet fluorescence, 18-24 h; for cell number change: measured here: cell count max response, cells fed with added oleic acid
Procedure, shortened: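 Drosophila S3 cells loaded with oleic acid (400 uM, as added) and compounds at several concentrations; lipid droplets imaged by 488-nm laser-scanning cytometry, 500–530 nm intensity and object ratio to cell channel. Percent activity normalized to 20 uM Triacsin C.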

[1] = measured here: cell number channel AC50, cells fed with added oleic acid
[2] = measured here: lipid fluorescence (Fed channel) AC50, cells fed with added oleic acid

## CN(CCOc1ccc(Cl)c(Cl)c1)Cc1ccccc1
  cell number change: -27%

## CCOc1cc2[nH]c(=S)n(C(C)C)c(=O)c2cc1OCC
  cell number change: -35.9%
[1]
  AC50: 13 µM [falling, single point]
[2]
  AC50: 16.4 µM [falling, single point]

## Cc1ccc(C)c(S(=O)(=O)N2CCN(C(=O)C3CCN(c4ncnc5sc(C)c(C)c45)CC3)CC2)c1
  cell number change: 62%
[1]
  AC50: 1.3 µM [rising, full curve]

## CC1(C)CN(c2ccccc2)N(C(=O)c2ccc(C#N)cc2)C1=O
[2]
  AC50: 29.1 µM [rising, single point]

## O=C(Cc1ccccc1F)Nc1cc(S(=O)(=O)N2CCOCC2)ccc1N1CCOCC1
  cell number change: 5.83%

## CCc1cc(=O)oc2c3c(cc(OCC(=O)NCCN4CCOCC4)c12)OC(C)(C)CC3
  cell number change: 11.5%
[2]
  AC50: 29.1 µM [falling, single point]

## CCOc1ccc(C2/C(=C(\O)c3ccc4c(c3)OCCO4)C(=O)C(=O)N2Cc2cccnc2)cc1OCC (stereo not given)
  cell number change: 26.3%
[1]
  AC50: 0.00411 µM [rising, full curve, poor fit]
[2]
  AC50: 29.1 µM [falling, single point]

## COc1cc(-c2nc3oc4ccccc4c(=O)c3c(=O)n2Cc2ccco2)cc(OC)c1OC
  cell number change: -17.7%
[2]
  AC50: 1.84 µM [rising, full curve]

## O=C(NCCc1ccccn1)c1cncc(Br)c1
  cell number change: 13.9%

## CC(C)N1CC(C(=O)O)CC1=O (stereo not given)
  cell number change: -40.1%
[1]
  AC50: 3.26 µM [falling, partial curve, poor fit]
[2]
  AC50: 1.46 µM [falling, partial curve]

## CCCCN(Cc1cc2cc(OC)ccc2[nH]c1=O)C(=O)c1ccco1
[1]
  AC50: 6.51 µM [rising, single point]
[2]
  AC50: 2.91 µM [rising, partial curve]

## CS(=O)(=O)c1ccccc1-c1nnc(NC(=O)Cc2ccccc2)o1
  cell number change: -9.35%
[2]
  AC50: 29.1 µM [rising, single point]

## COc1ccc(-c2nc(N)n[nH]2)cc1OC
  cell number change: -14%
[1]
  AC50: 0.116 µM [falling, full curve, poor fit]
[2]
  AC50: 29.1 µM [falling, single point]

## COc1ccccc1-c1cc(C(=O)Nc2sc3c(c2C#N)CCC(C)C3)c2ccccc2n1 (stereo not given)
  cell number change: 33.9%
[1]
  AC50: 16.4 µM [rising, single point]

## CC(NC(=O)c1ccccc1)c1ccc(F)cc1 (stereo not given)
  cell number change: -25.7%
[1]
  AC50: 1.16 µM [falling, full curve, poor fit]
[2]
  AC50: 0.461 µM [falling, full curve, poor fit]

## Cc1ccc(C(=O)NNS(=O)(=O)c2ccc(F)cc2)cc1
  cell number change: 1.62%

## S=C(Nc1ccc(Oc2ccccc2)cc1)N1CCN(c2ccccn2)CC1
  cell number change: -13.8%
[2]
  AC50: 29.1 µM [falling, single point]

## CC(C)N1CCN(Cc2ccsc2)CC1CCO (stereo not given)
  cell number change: -12.9%
[1]
  AC50: 0.0461 µM [falling, full curve, poor fit]

## CCC(Oc1ccc2c(c1)C(=O)CC(C)(C)O2)C(=O)NCCN1CCCCCC1 (stereo not given)
  cell number change: 28.5%
[1]
  AC50: 1.46 µM [rising, full curve, poor fit]
[2]
  AC50: 0.259 µM [rising, full curve]

## O=C(COC(=O)CC(c1ccccc1)c1ccccc1)Nc1c(F)cccc1F
  cell number change: 42%
[1]
  AC50: 16.4 µM [rising, single point]
[2]
  AC50: 29.1 µM [rising, single point]

## CN(C)c1ccc(/C=C(\C#N)C(=O)c2ccccc2)cc1
  cell number change: -18.5%

## O=C(NCc1cccs1)C1CCN(c2ccc(S(=O)(=O)N3CCOCC3)cc2Cl)CC1
  cell number change: 0.209%

## Cc1ccccc1OCCC(=O)OCC(=O)NCCc1ccccc1
  cell number change: -12%

## COc1ccccc1/C=C/C(=O)OCC(=O)N1CCN(S(=O)(=O)c2ccc(C)cc2C)CC1
  cell number change: 7.63%

## CC(C)CC(COCc1ccc(Cl)cc1)N1CCN(C(=O)c2cccc(C(F)(F)F)c2)CCC1=O (stereo not given)
[2]
  AC50: 0.00651 µM [falling, full curve, poor fit]

## CS(=O)(=O)N(CCc1ccccc1)CC(=O)NCc1ccncc1
  cell number change: -67.5%
[1]
  AC50: 25.9 µM [falling, partial curve]

## CCN(CC)CCNC(=O)C12CC3CC(CC(C3)C1)C2
  cell number change: -90.6%
[1]
  AC50: 29.1 µM [falling, single point]

## CCCCCc1nnc(NC(=O)C(=O)OCC)s1
  cell number change: -50.2%
[2]
  AC50: 29.1 µM [falling, single point]

## Cc1ccc(CONC(=O)/N=C/N(C)C)cc1
  cell number change: 11.5%
[2]
  AC50: 0.651 µM [rising, full curve]

## CN(C(=O)c1ccc(Br)o1)C1CCCCC1
  cell number change: -1.49%

## Cc1ccc(-c2csc(-c3c[nH]c4ccccc34)n2)cc1
  cell number change: 6.5%
[1]
  AC50: 0.461 µM [rising, partial curve]
[2]
  AC50: 0.146 µM [rising, full curve, poor fit]

## C=CCn1c(SCC(=O)Nc2ccc3c(c2)OCO3)nnc1-c1ccccc1OC
  cell number change: 67.8%
[1]
  AC50: 0.651 µM [rising, partial curve]
[2]
  AC50: 0.651 µM [rising, partial curve]

## Cc1ccc(-n2nc(C)c3c(C)c(CCC(=O)Nc4ccc(CN5CCCC5)cc4)c(C)nc32)cc1
  cell number change: -8.01%

## O=C(NCc1ccco1)c1nn2c(C(F)(F)F)cc(-c3cccs3)nc2c1Br
  cell number change: 36.5%

## CC(NS(=O)(=O)c1ccccc1)C1COc2ccccc2O1 (stereo not given)
  cell number change: -9.31%
[1]
  AC50: 6.51 µM [falling, single point]
[2]
  AC50: 6.51 µM [falling, single point]

## C/C(=C\c1ccc(Cl)cc1)C(=O)c1c(C)cc(C)[nH]c1=O
  cell number change: 5.96%
[2]
  AC50: 29.1 µM [rising, single point]

## CN1CCN(C(=O)C2CC(c3c(F)cccc3Cl)=NO2)CC1 (stereo not given)
[2]
  AC50: 6.51 µM [falling, single point]

## COc1ccc(C(=O)NCc2ccc(-c3nc4ccccc4s3)cc2)cc1OC
  cell number change: -65.8%
[1]
  AC50: 29.1 µM [falling, single point]
[2]
  AC50: 0.146 µM [rising, full curve, poor fit]

## Cc1nc2ccccc2c2c1CC(C)S2 (stereo not given)
  cell number change: -0.979%
[2]
  AC50: 0.517 µM [falling, single point]

## COC(=O)Nc1ncc(CN2C(=O)c3ccccc3C2=O)s1
  cell number change: 2.04%
[2]
  AC50: 10.3 µM [rising, partial curve, poor fit]

## c1ccc(-c2[nH]ncc2CN2CCN(Cc3ccc4c(c3)OCO4)CC2)cc1
  cell number change: 11.1%
[2]
  AC50: 3.66 µM [falling, single point]

## CN(C)C(=O)COc1ccc(Br)cc1
  cell number change: -70.8%
[1]
  AC50: 25.9 µM [falling, partial curve, poor fit]

## CCOCCCn1c(-c2ccc(Cl)cc2)n[nH]c1=S
  cell number change: 40.1%
[1]
  AC50: 5.8 µM [rising, full curve, poor fit]
[2]
  AC50: 29.1 µM [falling, single point]

## COc1ccc(C(=O)c2c3ccccc3[n+]([O-])n2CCC(N)=O)cc1
[2]
  AC50: 29.1 µM [rising, single point]

## O=c1[nH]c(-c2cccnc2)nc2sc(-c3ccccc3)cc12
  cell number change: -122%
[1]
  AC50: 20.6 µM [falling, partial curve]
[2]
  AC50: 18.4 µM [falling, partial curve]

## CCS(=O)(=O)N1CCCC(C(=O)NCc2cccc(OC)c2)C1 (stereo not given)
  cell number change: 12.2%
[2]
  AC50: 0.103 µM [falling, full curve, poor fit]

## CC(C)C(NC(=O)C(NC(=O)C1O[C@@H]2OC(C)(C)O[C@@H]2[C@H]2OC(C)(C)O[C@@H]12)C(C)C)C(=O)O (stereo not given in full)
  cell number change: -3.17%
[1]
  AC50: 5.8 µM [falling, partial curve]
[2]
  AC50: 5.17 µM [falling, partial curve]

## COc1ccc(CN(C)Cc2c(O)ccc3cc(Br)ccc23)cc1OC
  cell number change: 0.403%
[2]
  AC50: 0.146 µM [rising, full curve, poor fit]

## Cc1ccc(S(=O)(=O)Nc2cccc3cccnc23)c([N+](=O)[O-])c1
  cell number change: -47.8%
[1]
  AC50: 11.6 µM [falling, partial curve, poor fit]
[2]
  AC50: 0.00461 µM [falling, full curve, poor fit]

## Cc1c(C(=O)NCc2ccccc2)cnn1-c1ccccc1
  cell number change: -1.09%
[2]
  AC50: 0.116 µM [falling, full curve, poor fit]

## CN1CCN(c2ccc(S(=O)(=O)N3CCCCC3)cc2NC(=O)/C=C/c2ccc(Cl)c([N+](=O)[O-])c2)CC1
  cell number change: -25%
[2]
  AC50: 16.4 µM [falling, partial curve]

## NC(=S)N/N=C/c1coc2ccc(Cl)cc2c1=O
  cell number change: -24.8%

## O=C1Nc2ccccc2N(O)N1c1ccc(Cl)c(Cl)c1
  cell number change: 15.1%
[2]
  AC50: 2.06 µM [rising, partial curve]

## CC(C)n1nccc1N(Cc1ccc(Br)cc1)S(=O)(=O)c1ccccc1
[2]
  AC50: 35.5 µM [rising, single point]

## Cc1cc(NC(=O)c2ccc(Cl)cc2Cl)no1
  cell number change: 12.6%
[2]
  AC50: 11.6 µM [rising, single point]

## COc1ccc(N2CCN(c3nc4cc(C)ccc4cc3C=O)CC2)cc1
  cell number change: -1.68%

## O=C(Nc1ccccc1F)C1CCN(S(=O)(=O)c2cccnc2)CC1
[2]
  AC50: 29.1 µM [rising, single point]

## Cc1ccc(NS(=O)(=O)c2ccc(/C=C/C(=O)O)cc2)cc1Cl
  cell number change: 4.94%

## Cc1nc(C)c(C(=O)O)c(-c2cccs2)c1C(=O)O
  cell number change: -25.2%

## COc1cccc(NS(=O)(=O)NC(=O)c2c(C)[nH]c3ccccc23)c1
  cell number change: -19.5%

## COc1ccc(/C(N)=N/OC(=O)C2CCC(=O)N2S(=O)(=O)c2ccc(C)cc2)cc1OC (stereo not given)
[1]
  AC50: 0.58 µM [rising, single point]
[2]
  AC50: 14.6 µM [rising, partial curve]
